According to article PMC7566471, “A new perspective on the interaction between the Vg/VGLL1-3 proteins and the TEAD transcription factors” (Scientific Reports, 2020):
Results are given in words; binding and its absence hold for the method and conditions named. In cells and extracts the contact can be indirect. Some results given as binding are weak or reduced against the parent protein; the word gives no strength. Where a sequence is shown, tags or fusion partners need not be part of it.

Chains of the proteins cited; added tags and fusions are not shown. Lines headed by an entry give the natural chain unless they say otherwise; changes in a name come on top. A line that says so, or that is headed by a name, gives the form on record, which may keep a tag or linker.
UniProt Q15561: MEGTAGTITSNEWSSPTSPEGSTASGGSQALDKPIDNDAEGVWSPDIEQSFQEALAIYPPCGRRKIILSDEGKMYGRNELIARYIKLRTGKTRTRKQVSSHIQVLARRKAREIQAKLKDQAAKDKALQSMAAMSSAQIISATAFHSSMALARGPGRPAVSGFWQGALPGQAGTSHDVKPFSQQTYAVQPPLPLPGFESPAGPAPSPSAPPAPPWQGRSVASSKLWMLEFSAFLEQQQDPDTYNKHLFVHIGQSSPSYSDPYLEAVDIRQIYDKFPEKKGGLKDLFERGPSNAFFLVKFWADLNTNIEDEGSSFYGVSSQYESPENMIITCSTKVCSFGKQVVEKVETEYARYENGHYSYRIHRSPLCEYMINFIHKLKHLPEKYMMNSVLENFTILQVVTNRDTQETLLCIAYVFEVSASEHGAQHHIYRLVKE
N-terminally V5-tagged Asp272Ala^TEAD4 (full length) (Q15561, form named): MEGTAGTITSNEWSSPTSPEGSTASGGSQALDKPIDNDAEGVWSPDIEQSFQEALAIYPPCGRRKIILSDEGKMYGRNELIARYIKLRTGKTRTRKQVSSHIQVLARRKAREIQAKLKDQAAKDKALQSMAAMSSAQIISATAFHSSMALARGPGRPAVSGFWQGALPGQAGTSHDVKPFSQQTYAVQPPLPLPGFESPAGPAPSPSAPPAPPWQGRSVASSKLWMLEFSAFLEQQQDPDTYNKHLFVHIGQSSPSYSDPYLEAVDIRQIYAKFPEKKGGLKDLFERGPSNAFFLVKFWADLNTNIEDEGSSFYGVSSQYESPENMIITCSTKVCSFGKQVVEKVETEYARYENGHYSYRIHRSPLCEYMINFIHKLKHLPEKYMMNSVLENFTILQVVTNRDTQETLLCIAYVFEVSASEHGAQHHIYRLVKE

Columns and labels:
[1] = molecular target: N-terminally V5-tagged wt^TEAD4 (full length) (human) (UniProt Q15561); assay: co-IP; V5-TEAD4 and (FLAG)3-VGLL2 co-transfected into HEK293FT YAP/TAZ double knockout cells; V5 immunoprecipitation, anti-FLAG Western blot; similar results in wild-type HEK293FT cells
[2] = molecular target: N-terminally V5-tagged Asp272Ala^TEAD4 (full length) (human) (UniProt Q15561); assay: as above

- binding [1]: binds
- binding [2]: binds
B1: (FLAG)3-wt^VGLL2 (full length) (protein, UniProt Q8N8G2-1 1-317)
chain: MSCLDVMYQVYGPPQPYFAAAYTPYHQKLAYYSKMQEAQECNASPSSSGSGSSSFSSQTPASIKEEEGSPEKERPPEAEYINSRCVLFTYFQGDISSVVDEHFSRALSQPSSYSPSCTSSKAPRSSGPWRDCSFPMSQRSFPASFWNSAYQAPVPPPLGSPLATAHSELPFAAADPYSPAALHGHLHQGATEPWHHAHPHHAHPHHPYALGGALGAQAAPYPRPAAVHEVYAPHFDPRYGPLLMPAASGRPARLATAPAPAPGSPPCELSGKGEPAGAAWAGPGGPFASPSGDVAQGLGLSVDSARRYSLCGASLLS
